The assay deals with T1, UNQ1900-ECD-Fc (human) (UniProt Q6UXG8).
T1 sequence: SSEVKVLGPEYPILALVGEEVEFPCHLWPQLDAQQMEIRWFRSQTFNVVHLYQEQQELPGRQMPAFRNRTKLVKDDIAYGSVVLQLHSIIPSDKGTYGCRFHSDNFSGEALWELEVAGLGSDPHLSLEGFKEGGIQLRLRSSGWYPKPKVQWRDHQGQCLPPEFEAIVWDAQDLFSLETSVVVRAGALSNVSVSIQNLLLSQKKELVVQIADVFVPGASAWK
Kind of assay: BiaCore; UNQ1900-ECD-Fc coated on chip, 275 proteins tested as analytes. (In general: In SPR one partner is held on a chip, and binding of the other changes the refractive index at the surface.)

Amino acid sequences for entries named in this document (tags omitted). Residues count along the entry.
UniProt P01579, residues 24-166: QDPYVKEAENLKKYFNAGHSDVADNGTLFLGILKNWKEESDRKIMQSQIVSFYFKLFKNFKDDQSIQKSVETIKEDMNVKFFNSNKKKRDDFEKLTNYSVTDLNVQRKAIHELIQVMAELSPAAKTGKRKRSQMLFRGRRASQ

No constants are given. Whether binding was seen depends on the method and setting. Some entries that bind do so weakly or less than the wild type. Where a sequence is shown, tags or fusion partners need not be part of it.

In the case of “INF-gamma (from UniProt P01579 24-166) (ligand)”, the binding result is listed as “binds”.

These data come from US20090196876A1.
